The values that follow come from patent publication US11034724B2 (Stealth BioTherapeutics Corp., priority 2017, dated 2021).

Values joined by “and” are separate entries in the source; they are usually repeats but may differ in a detail not shown here. Identical values can stand only once.

A short description of the data set: peptide synthesis.
Where [1] appears, read: late stage modification step, HPLC-UV.

Regarding Boc-D-Arg-DMT-Lys(Boc)-Phe-NH2, the “purity (crude or final not stated)” value (HPLC-UV) worked out at 97.50%. In addition, the “final HPLC purity” value (purification step, % area, run 1) came to 98.51%; the “final HPLC purity” value (purification step, % area, run 2) worked out at 98.63%; the “final HPLC purity” value (purification step, % area, run 3) worked out at 99.24%; the “final HPLC purity” value (purification step, % area, run 4) was 98.44%; the “final HPLC purity” value (purification step, HPLC-UV, run 1) was 98.63% and 99.24% and 98.44%. The step yield by setting is: (purification step, theoretical yield, run 1) 85.06%; (purification step, theoretical yield, run 2) 88.97%; (purification step, theoretical yield, run 3) 31.57%; (purification step, theoretical yield, run 4) 84.39%.

For the substance D-Arg-DMT-Lys-Phe-NH2, where the note is “late stage modification step”, the difficulty met result is reported as “formation of isopropyl ester analog as well as several t-butylated analogs as impurities”. Under setting [1], the “crude HPLC purity” value was 98.41% a/a and 98.08 area %; the “final HPLC purity” value was 98.07 area %. For the same substance, the step yield (late stage modification step, uncorrected for residual solvents) is given as 96%.
